Values quoted from earlier work, collected in paper PMC12145446, “Development of an AI model for DILI-level prediction using liver organoid brightfield images” (Communications Biology, 2025).

Details: FDA DILIrank category based on clinical data; cited from earlier work

| Compound | DILIrank |
| --- | --- |
| CCN(CC)CC(=O)Nc1c(C)cccc1C [Lidocaine] | vNo-DILI-Concern |
| CN(C)CCOC(c1ccccc1)c1ccccc1 [Diphenhydramine] | vNo-DILI-Concern |
